Reference: PubChem BioAssay AID1671190 (National Center for Advancing Translational Sciences (NCATS), 2021)
About 6,100 (1.1%) of roughly 580,000 compounds were called active. The inconclusive results got no clear call from the source; some entries with a clear call stand among them for comparison. Calls follow the shape of the dose curve; as a rule, active = well fitted inhibition curve with a large enough effect; inconclusive = small, poorly fitted or top-dose-only effect, or another doubt; inactive = no such curve, though single readings can be large or run the other way. A potency beside an inconclusive call is a rough fit, not a confirmed value.

Amino acid sequences for entries named in this document (tags omitted).
UniProt P18054, whole entry, looked up: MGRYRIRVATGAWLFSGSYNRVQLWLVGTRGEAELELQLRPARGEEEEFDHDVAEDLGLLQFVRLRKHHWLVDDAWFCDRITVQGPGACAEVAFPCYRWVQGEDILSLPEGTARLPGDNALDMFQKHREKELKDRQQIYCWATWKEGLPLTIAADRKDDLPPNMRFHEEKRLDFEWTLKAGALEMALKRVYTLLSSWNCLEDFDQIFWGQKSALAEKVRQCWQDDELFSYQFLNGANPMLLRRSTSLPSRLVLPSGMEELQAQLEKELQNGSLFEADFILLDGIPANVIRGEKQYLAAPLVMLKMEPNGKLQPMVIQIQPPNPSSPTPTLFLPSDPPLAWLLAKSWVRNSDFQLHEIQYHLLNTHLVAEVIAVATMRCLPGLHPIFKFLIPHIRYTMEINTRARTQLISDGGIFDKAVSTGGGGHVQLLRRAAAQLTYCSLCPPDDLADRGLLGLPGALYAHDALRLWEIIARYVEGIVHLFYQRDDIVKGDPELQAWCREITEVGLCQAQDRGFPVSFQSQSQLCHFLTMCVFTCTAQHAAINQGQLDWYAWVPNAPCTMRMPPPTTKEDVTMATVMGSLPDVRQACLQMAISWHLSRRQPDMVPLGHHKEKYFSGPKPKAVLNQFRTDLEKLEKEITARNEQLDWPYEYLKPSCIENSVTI

molecular target: Polyunsaturated fatty acid lipoxygenase ALOX12 (Homo sapiens) (UniProt P18054); test: Primary qHTS assay for inhibitors of human arachidonate 12S-lipoxygenase (ALOX12): Round 2; conditions: purified 12hLO, xylenol orange hydroperoxide absorbance; series mostly up to 108 µM
Summary of the method: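 Purified human 12hLO (150 nM final) in 25 mM Hepes, 0.01% Triton X-100, pH 7.0 was preincubated 15 min at room temperature with compound. Then 40 uM arachidonic acid was added, 30 min. Hydroperoxide was read by Fe-XO absorbance ratio 573/405 nm.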
Potency is read from the fitted curve at half-maximal effect.

SMILES | Potency
COc1ccc2c(c1OC)C(=O)N1C(C(=O)O)Cc3c([nH]c4ccccc34)C21 (stereo not given) | inconclusive: 3.16 µM [inhibitor, full curve, poor fit]
C/C(C/C(C)=C1/SC(=S)NC1=O)=C1\SC(=S)NC1=O | inconclusive: 31.6 µM [inhibitor, partial curve, poor fit]
N#Cc1cn(Cc2cccc(Cl)c2)c2ccccc12 | inactive
CC1CCCC(NC(=O)/C=C/c2c(F)cccc2Cl)C1C (stereo not given) | inconclusive: 112 µM [inhibitor, partial curve, poor fit]
COc1cccc(N2CC(NC(=O)c3ccc4ccccc4c3)CC2=O)c1 (stereo not given) | inconclusive: 112 µM [inhibitor, partial curve, poor fit]
C=CCOc1cccc(C2/C(=C(/O)c3ccccc3)C(=O)C(=O)N2CCN2CCOCC2)c1 (stereo not given) | inactive
COCCn1c(SCC(=O)Nc2cc(Cl)ccc2OC)nc2c(c1=O)SC(C)C2 (stereo not given) | inconclusive: 126 µM [inhibitor, partial curve, poor fit]
CCOCCCn1c(=N)c(C(=O)NC(C)c2ccccc2)cc2c(=O)n3cc(C)ccc3nc21 (stereo not given) | inconclusive: 89.1 µM [inhibitor, partial curve, poor fit]
CCC(C)Sc1nnc(CSc2nc(C)cc(C)n2)n1C (stereo not given) | inactive
CC(C)CC1NC(=O)N(CC(=O)N2CCN(S(=O)(=O)c3ccc4ccccc4c3)CC2)C1=O (stereo not given) | inactive
CN(C)c1ccc(NC(=O)CSc2nnc(-c3cccs3)n2Cc2ccco2)cc1 | inconclusive: 12.6 µM [inhibitor, partial curve, poor fit]
CC(=O)c1c(C)[nH]c(C(=O)COC(=O)CNS(=O)(=O)c2ccccc2)c1C | inconclusive: 112 µM [inhibitor, partial curve, poor fit]
COc1ccc(CN(C(=O)COc2ccccc2)c2ccccc2C(=O)O)cc1 | inactive
CCCC(=O)N1CCc2cc(OC)c(OC)cc2C1COc1ccccc1OC (stereo not given) | inconclusive: 126 µM [inhibitor, partial curve, poor fit]
C#CCNC(=O)c1ccccc1NCC(=O)NC(=O)NCc1ccccc1 | inconclusive: 56.2 µM [inhibitor, partial curve, poor fit]
S=C(NCCc1ccccc1)Nc1ccc(Nc2ccccc2)cc1 | inconclusive: 50.1 µM [inhibitor, partial curve, poor fit]
O=C(O)CSCC(=O)N1CCOCC1 | inconclusive: 44.7 µM [inhibitor, partial curve, poor fit]
CCc1ccc(CNc2ncc(-c3cccc(OC)c3)n2C)cc1 | inconclusive: 50.1 µM [inhibitor, partial curve, poor fit]
CCc1ccc([C@@H]2CC=C(C(=O)O)[C@H](c3ccc(C)cc3)N2S(=O)(=O)c2ccc(C)cc2)cc1 | inconclusive: 50.1 µM [inhibitor, partial curve, poor fit]
c1cnc2nc(C3CCNC3)[nH]c2c1 (stereo not given) | inconclusive: 3.26 µM [inhibitor, partial curve, poor fit]
CSc1cccc(NC(N)=S)c1 | inconclusive: 100 µM [inhibitor, partial curve, poor fit]
O=C(COC(=O)C1(c2ccccc2F)CCCC1)NCc1ccc2c(c1)OCO2 | inactive

SMILES | Potency
Cn1c(N)c(-c2csc(Nc3ccccc3)n2)c(=O)n(C)c1=O | active: 44.7 µM
CS(=O)(=O)N(CC(=O)N1CCc2ccccc2C1)c1cccc(Br)c1 | inconclusive: 100 µM [inhibitor, single point]
FC(F)(F)c1cccc(-c2ccc(-c3csnn3)o2)c1 | inconclusive: 3.55 µM [inhibitor, full curve, poor fit]
Cc1ccc(NC(=S)NNC(=O)c2cccc([N+](=O)[O-])c2)cc1Cl | inconclusive: 35.5 µM [inhibitor, partial curve]
CC1(C)OC(=CC=Nc2ccc(Cl)cc2)OC1(C)C | inconclusive: 31.6 µM [inhibitor, partial curve, poor fit]
O=C(CCC(=O)c1ccc(Cl)s1)Nc1ncccc1O | inconclusive: 50.1 µM [inhibitor, partial curve, poor fit]
CNC(=S)N/N=C/C1=CCC2CC1C2(C)C (stereo not given) | inconclusive: 56.2 µM [inhibitor, partial curve, poor fit]
S=c1[nH]nc(-c2ccc(Br)cc2)n1Cc1ccco1 | inconclusive: 10 µM [inhibitor, partial curve, poor fit]
COc1cc(C=O)ccc1OCCCCOc1ccc(Cl)cc1Br | inconclusive: 112 µM [inhibitor, single point]
CC(=O)Nc1ccc(CN2CCCN(C)CC2)cc1 | inconclusive: 0.501 µM [inhibitor, full curve, poor fit]
NCc1ccccc1OC(F)(F)F | inactive
CSc1ccc(CNCCN2CCOCC2)cc1 | inconclusive: 39.8 µM [inhibitor, partial curve, poor fit]
Cc1cccc(C)c1NC(=O)Cn1c(=O)n(Cc2ccc(C(=O)NCc3ccco3)cc2)c(=O)c2sccc21 | inconclusive: 89.1 µM [inhibitor, partial curve, poor fit]
O=C(NC(=S)N1CCCC1)c1ccc(Cl)cc1 | inconclusive: 44.7 µM [inhibitor, partial curve, poor fit]
c1ccc(Nc2nc(N3CCOCC3)c3ccccc3n2)cc1 | inconclusive: 44.7 µM [inhibitor, single point]
O=C(O)CCC(=O)Nc1ccc(N2CCCCCC2)cc1 | inconclusive: 100 µM [inhibitor, single point]
CC(C)CC1C(=O)N(Cc2cn(Cc3ccco3)nn2)CCS(=O)(=O)N1Cc1ccc(-c2ccc(Cl)cc2)cc1 (stereo not given) | inconclusive: 35.5 µM [inhibitor, partial curve]
CCNC(=O)N[C@H]1C[C@@H](Cc2cc(CN3CCN(c4ccccc4)CC3)on2)C1(C)C | inconclusive: 89.1 µM [inhibitor, partial curve, poor fit]
Cn1c(SCC(=O)Nc2nccs2)nnc1-c1ccco1 | inconclusive: 28.2 µM [inhibitor, partial curve, poor fit]
O=C(Nc1cccc(F)c1)N1CCN(Cc2ccc(Cl)s2)CC1 | inconclusive: 50.1 µM [inhibitor, partial curve, poor fit]
COc1ccc(CCNC(=S)Nc2cccc3ccccc23)cc1 | inconclusive: 50.1 µM [inhibitor, partial curve]
COCC(=O)N1CCC[C@@]2(CCN(c3ccccc3)C2)C1 | inconclusive: 31.6 µM [inhibitor, single point]

SMILES | Potency
Cc1ccc(C(=O)N/C(=C/c2ccco2)C(=O)NCCc2c[nH]c3ccccc23)cc1 | inconclusive: 50.1 µM [inhibitor, partial curve, poor fit]
CC(NC(=O)Cn1c(=O)c2c(ncn2C)n(C)c1=O)c1ccc(Cl)c(Cl)c1 (stereo not given) | inconclusive: 50.1 µM [inhibitor, partial curve, poor fit]
O=C(O)c1ccccc1Nc1ccc2nonc2c1[N+](=O)[O-] | inconclusive: 35.5 µM [inhibitor, partial curve, poor fit]
CNC(=O)C1(N2CCC[C@H]2C(=O)NCCOC)CCOCC1 | active: 10 µM
COc1cccc(-c2nnc(SCC(=O)N3CCCCC3)o2)c1 | inactive
Cc1ccc(C(=O)CSc2nsc(C)c2C#N)cc1 | inconclusive: 31.6 µM [inhibitor, partial curve, poor fit]
COc1ccccc1C(NC(=O)C1CCN(CCOc2ccc3ccccc3c2)CC1)c1ccccn1 (stereo not given) | inconclusive: 89.1 µM [inhibitor, partial curve, poor fit]
O=C(CN1CCN(Cc2ccccc2)CC1)N/N=C/c1ccccc1F | inactive
COc1cccc2c1OC1(CCN(C(C)=O)CC1)N1N=C(c3ccccc3OC(F)F)CC21 (stereo not given) | inactive
COc1cc(-c2nc3ccc4ccccc4c3c3c2CCC3)cc(OC)c1OC | inconclusive: 44.7 µM [inhibitor, partial curve, poor fit]
CCc1c(C(=O)N(C)Cc2nc3ccsc3c(=O)[nH]2)cnn1-c1cccc(Cl)c1 | inactive
COC(=O)Cc1ccc(NC(=O)c2ccc3c(c2)C(=O)N(Cc2cccnc2)C3=O)cc1 | inactive
CN1/C(=C\C(=O)COC(=O)Cn2nnc(-c3ccccc3)n2)C(C)(C)c2ccccc21 | inactive
O[C@H]1CC[C@@H](Cc2cc(COc3ccccc3)on2)O[C@@H]1CNCc1cccnc1 | inactive
CC1(C)N=C(N)N=C(N)N1c1cccc(C(=O)O)c1 | inactive
Cc1ccc(SCCc2ccc(C)nc2)cc1 | inconclusive: 44.7 µM [inhibitor, partial curve, poor fit]
COc1ccc(S(=O)(=O)NCC(c2cccnc2)N2CCN(c3ccc(F)cc3)CC2)cc1C (stereo not given) | inactive
CC(=O)N(Cc1ccco1)c1nc(C(=O)Nc2ccc(Cl)cc2)c(C)s1 | inconclusive: 89.1 µM [inhibitor, single point]
COCCNC(=O)c1ccc2c(c1)N(C)C(CC(=O)NC(C)C)CO2 (stereo not given) | inconclusive: 89.1 µM [inhibitor, partial curve, poor fit]
CC(=O)c1c(C)[nH]c(C(=O)C(C)OC(=O)c2cccc(F)c2)c1C (stereo not given) | inconclusive: 63.1 µM [inhibitor, partial curve, poor fit]
COc1ccc(OC2CN(CC3CC3)C2)cc1 | inconclusive: 100 µM [inhibitor, partial curve, poor fit]

Some of the entries above in another layout:
SMILES	Potency
Cc1ccc(C(=O)N/C(=C/c2ccco2)C(=O)NCCc2c[nH]c3ccccc23)cc1	inconclusive: 50.1 µM [inhibitor, partial curve, poor fit]
CC(NC(=O)Cn1c(=O)c2c(ncn2C)n(C)c1=O)c1ccc(Cl)c(Cl)c1 (stereo not given)	inconclusive: 50.1 µM [inhibitor, partial curve, poor fit]
O=C(O)c1ccccc1Nc1ccc2nonc2c1[N+](=O)[O-]	inconclusive: 35.5 µM [inhibitor, partial curve, poor fit]

Some of these compounds in order of count of non-hydrogen atoms, ascending.
SMILES | Potency
CCC(C)Sc1nnc(CSc2nc(C)cc(C)n2)n1C (stereo not given) | inactive
COc1cc(-c2nc3ccc4ccccc4c3c3c2CCC3)cc(OC)c1OC | inconclusive: 44.7 µM [inhibitor, partial curve, poor fit]
O[C@H]1CC[C@@H](Cc2cc(COc3ccccc3)on2)O[C@@H]1CNCc1cccnc1 | inactive
